Consider one compound from US9994594B2, “Inhibitors of arginase and their therapeutic applications” (MARS, INCORPORATED, priority 2010, dated 2018).

By UniProt entry, the sequences of proteins in these tests, tags left out. Residues count along the entry.
UniProt P05089, whole entry: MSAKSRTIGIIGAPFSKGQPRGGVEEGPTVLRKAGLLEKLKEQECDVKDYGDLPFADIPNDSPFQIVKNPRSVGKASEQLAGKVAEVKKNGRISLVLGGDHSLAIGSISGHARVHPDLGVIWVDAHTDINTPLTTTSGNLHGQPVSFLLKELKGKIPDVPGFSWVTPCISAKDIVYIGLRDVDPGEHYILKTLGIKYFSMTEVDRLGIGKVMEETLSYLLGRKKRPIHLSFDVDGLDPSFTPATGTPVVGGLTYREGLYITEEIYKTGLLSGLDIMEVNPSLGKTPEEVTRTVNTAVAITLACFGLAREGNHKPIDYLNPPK
UniProt P78540, 23-354 limits assumed: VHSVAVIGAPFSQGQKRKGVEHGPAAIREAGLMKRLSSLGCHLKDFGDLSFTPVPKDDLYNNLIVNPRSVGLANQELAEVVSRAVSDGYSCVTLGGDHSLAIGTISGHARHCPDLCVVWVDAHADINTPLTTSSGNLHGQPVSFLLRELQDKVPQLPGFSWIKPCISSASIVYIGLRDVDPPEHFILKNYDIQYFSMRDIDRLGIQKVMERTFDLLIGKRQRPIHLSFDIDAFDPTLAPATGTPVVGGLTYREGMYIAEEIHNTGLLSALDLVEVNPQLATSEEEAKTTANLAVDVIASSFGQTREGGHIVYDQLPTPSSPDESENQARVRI

One test concerns the target human arginase I (ARG I) (Homo sapiens, UniProt P05089). In words: Inhibition of arginase I, spectrophotometric urea assay at 530 nm. The following applies: read-out: Potency (ARG I); Formula II compounds, Table 2-A; tested form: dihydrochloride. As to the method: (§1) The assay established the concentration of inhibitor that is required to reduce arginase activity by 50% (IC50).
(§2) Inhibition of arginase I (ARG I) and arginase II (ARG II) by Formula I and Formula II compounds is followed spectrophotometrically at 530 nm. The compound to be tested is dissolved in DMSO at an initial concentration 50-fold greater than its final concentration in the cuvette. 10 μl of the stock solution is diluted in 90 μl of the assay buffer that comprises 0.1M sodium phosphate buffer containing 130 mM NaCl, pH 7.4, to which is added ovalbumin (OVA) at a concentration of 1 mg/ml. Solutions of arginase I and II are prepared in 100 mM sodium phosphate buffer, pH 7.4 containing 1 mg/ml of OVA to give an arginase stock solution at a final concentration of 100 ng/ml.
(§3) To each well of a 96-well microtiter plate is add 40 μl of enzyme, 10 μl of an inventive compound and 10 μl of enzyme substrate (L-arginine+manganese sulfate). For wells that are used as positive controls, only the enzyme and its substrate are added, while wells used as negative controls contain only manganese sulfate.
(§4) After incubating the microtiter plate at 37° C. for 60 minutes, 150 μl of a urea reagent obtained by combining equal proportions (1:1) of reagents A and B is added to each well of the microtiter plate to stop the reaction. […]

A further test addresses arginase II (ARG II) (Homo sapiens, UniProt P78540). The test is described as follows: Inhibition of arginase II, spectrophotometric urea assay at 530 nm. The note with it: read-out: Potency (ARG); Formula II compounds, Table 2-A; tested form: dihydrochloride. As to the method: as §1, §2, §3, §4

The match of structure and compound is tentative.

For the compound `NC(CCCCB(O)O)(C(=O)O)C1CCN(Cc2cccc3c2NCC3)CC1` (centres unmarked), the IC50 on human arginase I (ARG I) and at arginase II (ARG II) was 0.1 to 250 nM in each case.
